Results taken from the supplement of paper PMC12067093, “Discovery and optimisation of a covalent ligand for TRIM25 and its application to targeted protein ubiquitination” (Chemical Science, 2025).
The other results are listed elsewhere or left out.

Protein sequences, listed by entry. Tags and fused reporters are not part of them. Lines headed by an entry give the natural chain unless they say otherwise; changes in a name come on top.
UniProt P54886: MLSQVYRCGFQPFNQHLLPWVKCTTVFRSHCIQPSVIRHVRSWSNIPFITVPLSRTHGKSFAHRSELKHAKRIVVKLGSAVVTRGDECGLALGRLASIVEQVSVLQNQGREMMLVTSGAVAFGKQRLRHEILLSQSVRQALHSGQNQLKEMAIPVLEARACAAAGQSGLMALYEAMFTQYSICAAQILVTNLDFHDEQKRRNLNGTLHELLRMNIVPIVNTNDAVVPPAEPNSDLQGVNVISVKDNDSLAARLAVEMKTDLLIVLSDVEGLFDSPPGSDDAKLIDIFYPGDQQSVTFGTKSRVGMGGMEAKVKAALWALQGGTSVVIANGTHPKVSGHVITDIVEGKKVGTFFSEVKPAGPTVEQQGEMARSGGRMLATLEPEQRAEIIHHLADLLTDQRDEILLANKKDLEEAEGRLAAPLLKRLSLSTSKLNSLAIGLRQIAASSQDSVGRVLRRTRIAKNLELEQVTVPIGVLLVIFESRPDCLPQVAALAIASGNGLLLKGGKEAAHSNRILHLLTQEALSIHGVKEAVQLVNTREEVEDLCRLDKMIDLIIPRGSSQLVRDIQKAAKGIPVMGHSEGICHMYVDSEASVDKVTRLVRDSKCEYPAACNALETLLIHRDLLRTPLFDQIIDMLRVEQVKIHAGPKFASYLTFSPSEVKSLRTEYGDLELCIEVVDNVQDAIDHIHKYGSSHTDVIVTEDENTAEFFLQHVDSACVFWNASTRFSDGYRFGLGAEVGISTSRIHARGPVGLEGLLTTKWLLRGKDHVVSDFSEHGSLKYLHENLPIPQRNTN
UniProt P14550: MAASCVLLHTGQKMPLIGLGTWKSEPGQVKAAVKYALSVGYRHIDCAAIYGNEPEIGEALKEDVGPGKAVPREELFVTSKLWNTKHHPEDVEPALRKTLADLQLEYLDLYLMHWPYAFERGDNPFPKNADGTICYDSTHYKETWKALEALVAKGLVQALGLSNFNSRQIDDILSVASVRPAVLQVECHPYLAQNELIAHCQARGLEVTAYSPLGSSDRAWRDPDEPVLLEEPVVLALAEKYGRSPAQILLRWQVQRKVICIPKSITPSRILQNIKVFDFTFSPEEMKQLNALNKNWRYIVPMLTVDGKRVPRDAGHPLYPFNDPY
UniProt Q9UJX5, whole entry, looked up: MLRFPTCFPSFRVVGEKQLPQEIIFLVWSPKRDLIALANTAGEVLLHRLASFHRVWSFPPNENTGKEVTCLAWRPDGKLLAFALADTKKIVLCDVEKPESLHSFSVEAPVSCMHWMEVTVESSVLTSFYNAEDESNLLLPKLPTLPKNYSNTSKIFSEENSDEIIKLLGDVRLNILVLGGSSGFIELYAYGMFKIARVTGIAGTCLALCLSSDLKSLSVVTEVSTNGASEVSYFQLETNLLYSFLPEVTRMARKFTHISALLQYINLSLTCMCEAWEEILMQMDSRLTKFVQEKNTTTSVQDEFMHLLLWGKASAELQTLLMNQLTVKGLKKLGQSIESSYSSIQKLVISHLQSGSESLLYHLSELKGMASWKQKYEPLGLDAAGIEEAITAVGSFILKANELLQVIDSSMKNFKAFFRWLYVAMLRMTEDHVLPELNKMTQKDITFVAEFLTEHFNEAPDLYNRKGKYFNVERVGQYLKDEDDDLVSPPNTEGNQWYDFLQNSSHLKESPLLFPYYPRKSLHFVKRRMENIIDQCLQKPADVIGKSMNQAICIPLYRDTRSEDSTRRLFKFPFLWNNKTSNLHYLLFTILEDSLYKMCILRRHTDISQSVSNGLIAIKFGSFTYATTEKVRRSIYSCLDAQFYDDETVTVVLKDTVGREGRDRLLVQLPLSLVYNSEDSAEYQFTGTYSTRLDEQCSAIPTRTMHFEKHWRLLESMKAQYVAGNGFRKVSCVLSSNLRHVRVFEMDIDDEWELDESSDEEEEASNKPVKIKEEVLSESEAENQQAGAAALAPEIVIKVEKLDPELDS
UniProt Q9UJX4, whole entry, looked up: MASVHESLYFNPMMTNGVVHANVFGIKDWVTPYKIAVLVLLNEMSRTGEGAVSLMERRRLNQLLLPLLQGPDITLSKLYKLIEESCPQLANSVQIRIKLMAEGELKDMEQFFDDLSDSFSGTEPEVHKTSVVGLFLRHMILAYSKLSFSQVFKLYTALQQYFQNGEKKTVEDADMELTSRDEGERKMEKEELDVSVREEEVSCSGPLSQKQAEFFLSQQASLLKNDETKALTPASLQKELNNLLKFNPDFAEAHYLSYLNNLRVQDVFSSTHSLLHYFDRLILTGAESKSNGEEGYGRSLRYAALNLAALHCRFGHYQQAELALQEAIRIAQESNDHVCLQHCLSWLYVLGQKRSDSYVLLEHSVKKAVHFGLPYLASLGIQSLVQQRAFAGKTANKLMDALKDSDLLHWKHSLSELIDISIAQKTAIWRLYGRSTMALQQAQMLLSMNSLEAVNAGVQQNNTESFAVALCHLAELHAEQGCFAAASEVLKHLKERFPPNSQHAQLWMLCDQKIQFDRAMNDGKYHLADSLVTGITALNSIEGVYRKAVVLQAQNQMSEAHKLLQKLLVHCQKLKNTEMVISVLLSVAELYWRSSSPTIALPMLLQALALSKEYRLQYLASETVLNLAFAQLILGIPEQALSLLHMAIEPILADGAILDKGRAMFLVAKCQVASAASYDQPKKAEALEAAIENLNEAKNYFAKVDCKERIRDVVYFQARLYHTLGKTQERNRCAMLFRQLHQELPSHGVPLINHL
UniProt Q9H1A4, whole entry, looked up: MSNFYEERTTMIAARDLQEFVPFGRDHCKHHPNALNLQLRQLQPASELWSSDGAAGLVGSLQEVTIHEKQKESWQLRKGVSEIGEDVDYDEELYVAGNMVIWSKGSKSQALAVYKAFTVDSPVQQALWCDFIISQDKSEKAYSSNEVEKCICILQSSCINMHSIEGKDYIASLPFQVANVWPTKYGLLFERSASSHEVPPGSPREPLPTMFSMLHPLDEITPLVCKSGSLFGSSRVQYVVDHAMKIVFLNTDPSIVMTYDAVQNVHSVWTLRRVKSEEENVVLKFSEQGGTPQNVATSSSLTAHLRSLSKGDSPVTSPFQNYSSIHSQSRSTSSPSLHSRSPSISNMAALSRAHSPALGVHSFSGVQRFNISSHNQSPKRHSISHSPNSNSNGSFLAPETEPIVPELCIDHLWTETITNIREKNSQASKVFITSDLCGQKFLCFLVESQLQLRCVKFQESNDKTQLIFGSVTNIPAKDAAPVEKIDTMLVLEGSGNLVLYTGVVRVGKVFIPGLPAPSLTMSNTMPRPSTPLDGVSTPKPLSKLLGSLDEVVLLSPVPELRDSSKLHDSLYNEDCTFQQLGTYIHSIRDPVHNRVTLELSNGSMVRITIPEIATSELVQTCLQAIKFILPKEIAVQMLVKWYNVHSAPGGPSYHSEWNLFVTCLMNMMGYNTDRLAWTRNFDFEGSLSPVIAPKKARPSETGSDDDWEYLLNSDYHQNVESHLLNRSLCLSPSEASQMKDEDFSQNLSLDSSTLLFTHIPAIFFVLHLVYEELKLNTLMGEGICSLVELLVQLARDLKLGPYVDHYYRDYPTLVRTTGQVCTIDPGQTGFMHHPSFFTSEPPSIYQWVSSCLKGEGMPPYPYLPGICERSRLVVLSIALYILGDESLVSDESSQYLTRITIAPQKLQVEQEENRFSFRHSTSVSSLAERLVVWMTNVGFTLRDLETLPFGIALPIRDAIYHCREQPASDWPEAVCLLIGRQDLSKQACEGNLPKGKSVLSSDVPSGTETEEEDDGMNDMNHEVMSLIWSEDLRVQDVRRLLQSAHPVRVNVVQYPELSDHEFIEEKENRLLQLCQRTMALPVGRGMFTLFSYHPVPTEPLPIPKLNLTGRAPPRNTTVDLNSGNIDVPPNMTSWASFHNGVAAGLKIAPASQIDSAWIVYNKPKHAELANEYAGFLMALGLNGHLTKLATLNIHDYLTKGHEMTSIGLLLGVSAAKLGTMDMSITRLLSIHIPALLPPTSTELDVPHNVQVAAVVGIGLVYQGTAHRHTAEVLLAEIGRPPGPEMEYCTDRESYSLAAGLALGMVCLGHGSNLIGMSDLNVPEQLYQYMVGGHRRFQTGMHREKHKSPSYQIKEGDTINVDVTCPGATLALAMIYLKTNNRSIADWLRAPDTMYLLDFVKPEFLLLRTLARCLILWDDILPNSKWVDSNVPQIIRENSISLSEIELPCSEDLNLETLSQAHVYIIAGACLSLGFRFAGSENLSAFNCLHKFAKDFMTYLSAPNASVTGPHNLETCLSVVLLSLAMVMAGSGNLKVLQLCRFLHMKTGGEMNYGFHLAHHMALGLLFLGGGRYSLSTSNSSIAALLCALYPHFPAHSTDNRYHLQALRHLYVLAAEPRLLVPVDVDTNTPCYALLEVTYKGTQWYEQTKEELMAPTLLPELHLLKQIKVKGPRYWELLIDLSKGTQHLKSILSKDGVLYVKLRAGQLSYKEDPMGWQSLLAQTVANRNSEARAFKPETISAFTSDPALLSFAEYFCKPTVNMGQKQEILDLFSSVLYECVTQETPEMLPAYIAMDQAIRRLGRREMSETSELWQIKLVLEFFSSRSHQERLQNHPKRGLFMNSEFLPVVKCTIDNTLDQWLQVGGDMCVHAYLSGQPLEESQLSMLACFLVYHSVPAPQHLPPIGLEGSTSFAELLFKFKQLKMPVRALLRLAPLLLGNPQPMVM
UniProt P30837: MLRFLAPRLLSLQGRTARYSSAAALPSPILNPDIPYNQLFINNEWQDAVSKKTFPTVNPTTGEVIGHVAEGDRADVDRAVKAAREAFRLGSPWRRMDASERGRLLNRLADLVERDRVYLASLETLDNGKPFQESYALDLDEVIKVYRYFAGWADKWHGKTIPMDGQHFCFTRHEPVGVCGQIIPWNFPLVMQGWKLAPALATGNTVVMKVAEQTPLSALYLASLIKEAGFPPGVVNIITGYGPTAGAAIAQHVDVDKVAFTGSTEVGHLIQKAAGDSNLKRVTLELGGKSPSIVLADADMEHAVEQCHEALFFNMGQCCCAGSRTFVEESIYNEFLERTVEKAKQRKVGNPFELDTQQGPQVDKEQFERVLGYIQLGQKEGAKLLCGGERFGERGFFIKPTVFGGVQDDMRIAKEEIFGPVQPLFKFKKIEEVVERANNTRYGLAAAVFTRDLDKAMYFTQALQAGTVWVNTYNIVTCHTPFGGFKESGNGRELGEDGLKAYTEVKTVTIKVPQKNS
UniProt P23526: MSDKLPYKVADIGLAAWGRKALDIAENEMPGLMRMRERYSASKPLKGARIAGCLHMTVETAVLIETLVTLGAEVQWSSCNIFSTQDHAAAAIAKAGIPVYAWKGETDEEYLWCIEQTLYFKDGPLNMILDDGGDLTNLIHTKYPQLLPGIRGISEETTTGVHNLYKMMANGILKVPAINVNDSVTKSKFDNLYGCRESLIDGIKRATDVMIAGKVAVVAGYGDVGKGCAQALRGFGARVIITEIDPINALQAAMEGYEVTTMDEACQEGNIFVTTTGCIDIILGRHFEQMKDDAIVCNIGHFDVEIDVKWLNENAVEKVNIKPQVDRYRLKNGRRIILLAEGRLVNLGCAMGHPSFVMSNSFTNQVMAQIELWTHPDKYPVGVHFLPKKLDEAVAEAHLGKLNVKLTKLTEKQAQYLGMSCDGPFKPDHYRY
UniProt Q01432: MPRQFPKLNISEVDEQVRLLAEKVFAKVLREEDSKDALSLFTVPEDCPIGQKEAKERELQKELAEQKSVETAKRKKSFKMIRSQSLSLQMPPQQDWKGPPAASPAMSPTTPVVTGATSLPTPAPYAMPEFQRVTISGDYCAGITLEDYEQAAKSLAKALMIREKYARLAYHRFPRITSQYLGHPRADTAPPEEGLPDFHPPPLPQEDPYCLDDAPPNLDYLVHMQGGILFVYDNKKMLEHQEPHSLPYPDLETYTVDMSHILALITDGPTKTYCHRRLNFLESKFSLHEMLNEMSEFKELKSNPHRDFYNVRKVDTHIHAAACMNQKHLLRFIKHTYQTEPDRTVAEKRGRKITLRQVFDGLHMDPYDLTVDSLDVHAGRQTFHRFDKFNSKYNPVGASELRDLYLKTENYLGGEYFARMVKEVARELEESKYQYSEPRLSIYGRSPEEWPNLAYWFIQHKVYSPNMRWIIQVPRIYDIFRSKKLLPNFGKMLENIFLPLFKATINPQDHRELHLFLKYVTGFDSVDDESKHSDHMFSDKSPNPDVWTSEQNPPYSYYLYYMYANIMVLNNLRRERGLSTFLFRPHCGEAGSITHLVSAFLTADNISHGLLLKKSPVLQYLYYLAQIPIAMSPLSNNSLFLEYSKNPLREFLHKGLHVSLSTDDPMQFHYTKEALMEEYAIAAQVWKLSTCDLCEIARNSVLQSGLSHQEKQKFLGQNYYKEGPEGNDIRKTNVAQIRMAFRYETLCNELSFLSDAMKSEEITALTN

Compound: Cc1cc(ccc1-c1ccccc1)C(=O)N1CCCN(CC1)C(=O)CCl [compound 10]
Test: probe-labelled cysteine peptide fold change vs DMSO (competition) (log2 fold change); higher = less target engagement (more negative = stronger competition)
Conditions: THP-1, incubation time: 4 h
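Note: competitive profiling in live THP-1 cells: cysteine peptides tagged with an iodoacetamide desthiobiotin (IA-DTB) probe, intensity after compound treatment relative to DMSO-treated cells.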

Target | probe-labelled cysteine peptide fold change (10 µM) | probe-labelled cysteine peptide fold change (50 µM)
ALDH18A1_P54886_674_TEYGDLELCIEVVDNVQDAIDHIHK (UniProt P54886) | 0.112 | 0.171
AKR1A1_P14550_46_HIDCAAIYGNEPEIGEALKEDVGPGK (UniProt P14550) | -0.393 | -1.14
AGPS_O00116_58_EALSTNECK (UniProt O00116) | -0.66 | -0.269
ANAPC4_Q9UJX5_697_LDEQCSAIPTR (UniProt Q9UJX5) | -0.0466 | 0.113
ANAPC5_Q9UJX4_203_EEEVSCSGPLSQK (UniProt Q9UJX4) | -0.511 | -0.804
ANAPC4_Q9UJX5_732_KVSCVLSSNLR (UniProt Q9UJX5) | 0.0537 | -0.0159
ANAPC1_Q9H1A4_962_DAIYHCR (UniProt Q9H1A4) | 0.0454 | 0.229
ANK2_Q01484_60_GGIDINTCNQNGLNALHLAAK (UniProt Q01484) | -0.0192 | 0.00171
ALDH1B1_P30837_179_HEPVGVCGQIIPWNFPLVMQGWK (UniProt P30837) | -0.0239 | -0.0672
AGPAT3_Q9NRZ7_254_KYEADMCVR (UniProt Q9NRZ7) | -0.189 | 0.173
AHCY_P23526_195_SKFDNLYGCR (UniProt P23526) | -0.056 | -0.0438
AKR7A2_O43488_132_RLQCPQVDLFYLHAPDHGTPVEETLHACQR (UniProt O43488) | -0.0268 | -0.23
AKAP8L_Q9ULX6_128_LDMVPHLETDMMQGGVYGSGGERYDSYESCDSR (UniProt Q9ULX6) | -0.185 | -0.639
AMPD3_Q01432_47_DALSLFTVPEDCPIGQK (UniProt Q01432) | -0.0813 | -0.147
